Here are results for two sequences from PMC5670216.

Amino acid sequences for entries named in this document (tags omitted). Residues count along the entry.
UniProt Q13296, 19-93: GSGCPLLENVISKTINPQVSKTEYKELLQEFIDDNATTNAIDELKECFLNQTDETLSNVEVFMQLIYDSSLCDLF
UniProt O75556, 19-95: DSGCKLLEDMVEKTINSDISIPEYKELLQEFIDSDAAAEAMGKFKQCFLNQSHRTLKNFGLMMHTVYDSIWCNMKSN
UniProt P02769, 25-607: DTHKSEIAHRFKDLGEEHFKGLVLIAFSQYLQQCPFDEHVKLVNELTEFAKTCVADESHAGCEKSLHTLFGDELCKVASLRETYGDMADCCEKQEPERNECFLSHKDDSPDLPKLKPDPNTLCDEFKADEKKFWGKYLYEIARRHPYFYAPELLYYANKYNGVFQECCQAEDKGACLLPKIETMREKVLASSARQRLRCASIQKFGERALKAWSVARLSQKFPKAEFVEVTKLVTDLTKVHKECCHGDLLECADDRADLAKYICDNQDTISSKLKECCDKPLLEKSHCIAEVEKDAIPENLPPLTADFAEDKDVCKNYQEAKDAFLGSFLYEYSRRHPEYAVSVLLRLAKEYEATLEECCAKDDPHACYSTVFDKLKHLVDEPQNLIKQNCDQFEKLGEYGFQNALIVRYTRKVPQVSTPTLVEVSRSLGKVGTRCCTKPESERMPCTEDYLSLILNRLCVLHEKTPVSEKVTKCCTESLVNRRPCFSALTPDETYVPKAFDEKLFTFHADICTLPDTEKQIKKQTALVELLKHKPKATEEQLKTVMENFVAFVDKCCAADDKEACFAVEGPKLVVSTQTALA

The target in data set [1] is Mammaglobin A (MGB1) on transfected HEK293 cells (UniProt Q13296). As to the kind of experiment: flow cytometry. To be noted: 5 mM Mg2+, protein on the cell surface, label: 5' 6-FAM (unlabeled in antibody blocking), single-stranded DNA. (A flow cytometer gives signals particle by particle.)
In data set [2] the target is Mammaglobin B (MGB2) on transfected HEK293 cells (UniProt O75556). As to the kind of experiment: flow cytometry. To be noted: 5 mM Mg2+, protein on the cell surface, label: 5' 6-FAM (unlabeled in antibody blocking), single-stranded DNA.
For data set [3], the target named is Bovine serum albumin (BSA) (bovine) (UniProt P02769). As to the kind of experiment: EMSA. The conditions noted are these: no significant shift, MAMA2 likewise; EMSA: 50 mM Tris-HCl, 10 mM reduced glutathione, pH 8.0, 1 h at 37 C, 8% native PAGE; transfected-cell flow cytometry: PBS, 5 mM MgCl2, 4 C, 30 min; commercial protein; label: 5' 6-FAM (unlabeled in antibody blocking); single-stranded DNA. (Mobility shift assays separate free from complexed probe on a gel.)

No signal at the amounts used counts as a negative. For some assays here: The exact form of at least one protein or probe is not confirmed. For some assays here: Where cells or extracts were used, other partners may take part.

In the case of “CATGCTTACCTATAGTGAACCCGGGACAGAACGTGCGCTTTGAGCTTTGAGAACTGACTCATAC [MAMA2]”, the binding result in data set [1] (300 nM aptamer, no binding to pUC19-transfected cells, blocks anti-MGB1) is reported as “binds”; in data set [2] it was “no binding”.

Consider “CATGCTTACCTATAGTGAACCCAACGTCGAACTGAATCCCGTGTCCTTTGAGAACTGACTCATAC [MAMB1]”, for which the binding result is “no binding” in data set [1]; “binds” in data set [2] (300 nM aptamer, no binding to pUC19-transfected cells, blocks anti-MGB2); “no binding” in data set [3].
